For at least one compound, name, drawing or mass did not settle the structure.
System: exudative AMD with persistent intraretinal or subretinal edema despite previous intravitreal anti-VEGF treatment
Test: Example 1: randomized, subject-masked trial of intravitreal sirolimus versus anti-VEGF (OCT CST and BCVA)
Format: in vivo, human
Conditions: baseline to months 3-6; Group 1 compared with Group 2; FIG. 1 and FIG. 3
From the text: This study was a single-center, randomized, subject-masked trial over the course of six months with eight scheduled visits. Study Population. Thirty human patients, who were 50 years of age or older at baseline were recruited according to the following inclusion and exclusion criteria. If both eyes met all of the inclusion/exclusion criteria the eye with the worse BCVA at baseline was selected as the study eye. If both eyes met all of the inclusion/exclusion criteria and BCVA values were identical for both eyes, the right eye was selected as the study eye. Study Treatment (Group 1). […] Sham intravitreal injection given at month 1, month 3 and month 5. […] Intravitreal injection of anti-VEGF per patient/investigator choice (pegaptanib, aflibercept, bevacizumab or ranibizumab) given at baseline and thereafter monthly per clinical criteria. Sham intravitreal injections given when retreatment criterion was not met at month 1 or any later visit. […] Both intraocular pressure and the perfusion of the optic nerve head were monitored and managed appropriately after injection. […] The primary efficacy endpoint includes change in edema from baseline to month 6 as measured by CST on Heidelberg OCT. change in BCVA from baseline to month 6; Continuous variables will be summarized with means and standard deviations and medians with min and max values and categorical variables with frequencies and percentages. […]

## CO[C@H]1C[C@@H]2CC[C@@H](C)[C@@](O)(O2)C(=O)C(=O)N2CCCC[C@H]2C(=O)O[C@H]([C@H](C)C[C@@H]2CC[C@@H](O)[C@H](OC)C2)CC(=O)[C@H](C)/C=C(\C)[C@@H](O)[C@@H](OC)C(=O)[C@H](C)C[C@H](C)/C=C/C=C/C=C/1C [sirolimus]
  average change in visual acuity (BCVA): comparable to that of Group 2

Reference: US11400080B2, “Use of sirolimus to treat exudative age-related macular degeneration with persistent edema” (Santen Pharmaceutical Co., Ltd., priority 2016, dated 2022)
